The data set in a line: Enantioselectivity of MIBK amination, chiral gas chromatography. The class given is biochemical.

B1: K67S/E113V/N261L/V290C: LeuDH-AmDH quadruple variant, SEQ ID NO:10, library 11 (protein)
chain: ELFQYMEKYDYEQVLFCQDKESGLKAIIVIHDTTLGPALGGTRMWMYNSEEEALEDALRLARGSTYMNAAAGLNLGGGKTVIIGDPRKDKNEAMFRAFGRFIQGLNGRYITAVDVGTTVADMDIIYQETDYVTGISPEFGSSGNPSPATAYGVYRGMKAAAKEAFGSDSLEGKVVAVQGVGNVAYHLCRHLHEEGAKLIVTDINKEAVARAVEEFGAKAVDPNDIYGVECDIFAPCALGGIINDQTIPQLKAKVIAGSADLQLKEPRHGDMIHEMGIVYAPDYVINAGGCINVADELYGYNRERAMKKIEQIYDNIEKVFAIAKRDNIPTYVAADRMAEERIETMRKARSQFLQNGHHILSRRRAR
Take B1: the “e.e. of (R)-1,3-DMBA” value (175 mL-scale reaction) is on record as above 99.3%. Besides, the e.e. ((R)-1,3-DMBA, TFAA derivatization, chiral GC) was determined as 99.8%.

For the origin of these results see patent publication US8835136B2, “Engineered amine dehydrogenases and methods of use thereof” (Georgia Tech Research Corporation, priority 2012, dated 2014).
